Test results published in article PMC8268430.
These are yes or no findings as the source states them, for the method shown. For part of these data: Binding seen in cells or lysates may run through a third protein. Some results given as binding are weak or reduced against the parent protein; the word gives no strength. Tags and fused reporters may be left off the sequences shown.

How the values were obtained:
[1] = target: T1, NAC102 fused to the GAL4 DNA-binding domain (BD) (Arabidopsis thaliana) (UniProt Q8H115); assay: two-hybrid; NAC102 fused to GAL4 BD as bait (pGBKT7, Y187), PEP and NEP subunits fused to GAL4 AD as prey (pGADT7, AH109); mated, diploids plated on DDO and on QDO + 10 mM 3-AT, 28 °C; growth compared with the AD control
T1 sequence: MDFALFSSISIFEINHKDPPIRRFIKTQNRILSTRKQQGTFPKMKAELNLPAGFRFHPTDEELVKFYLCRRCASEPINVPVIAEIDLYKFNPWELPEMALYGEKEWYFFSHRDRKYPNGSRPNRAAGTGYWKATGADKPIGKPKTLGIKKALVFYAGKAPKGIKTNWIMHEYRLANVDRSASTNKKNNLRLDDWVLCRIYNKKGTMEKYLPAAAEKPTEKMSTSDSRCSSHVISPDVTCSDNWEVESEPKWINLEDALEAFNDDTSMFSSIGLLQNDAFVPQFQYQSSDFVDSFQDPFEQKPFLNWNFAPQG

[2] = target: T2, NAC102-eYFP (Arabidopsis thaliana) (UniProt Q8H115); assay: co-IP; total proteins of 8-day-old NAC102-eYFP transgenic seedlings, GFP-Trap beads 1 h; IP buffer 50 mM Tris-HCl pH 7.4, 150 mM NaCl, 1% Triton X-100, 1% sodium deoxycholate, 20 mM EDTA; wash buffer also with 0.1% SDS; blots with antibodies against rpoA, rpoB, rpoC1, rpoC2, rpoTp, rpoTmp; SSU-eYFP line as negative control; repeated twice
T2 sequence: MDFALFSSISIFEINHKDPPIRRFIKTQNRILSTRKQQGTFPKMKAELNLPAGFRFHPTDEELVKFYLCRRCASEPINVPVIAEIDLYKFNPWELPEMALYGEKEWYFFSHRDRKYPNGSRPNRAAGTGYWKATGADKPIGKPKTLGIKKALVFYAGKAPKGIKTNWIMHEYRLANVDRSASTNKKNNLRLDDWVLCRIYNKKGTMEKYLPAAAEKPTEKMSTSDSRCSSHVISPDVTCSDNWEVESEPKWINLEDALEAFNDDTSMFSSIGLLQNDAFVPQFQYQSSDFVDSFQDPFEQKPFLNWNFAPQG

B1: rpoA fused to the GAL4 activation domain (AD) (protein, UniProt P56762 1-329)
chain: MVREKVKVSTRTLQWKCVESKRDSKRLYYGRFILSPLMKGQADTIGIAMRRALLGEIEGTCITRAKSENIPHDYSNIAGIQESVHEILMNLNEIVLRSNLYGTRNALICVQGPGYITARDIILPPAVEIIDNTQHIATLTEPIDLCIELKIERNRGYSLKMSNNFEDRSYPIDAVFMPVENANHSIHSYGNGNEKQEILFLEIWTNGSLTPKEALHQASRNLINLFIPFLHVEEETFYLENNQHQVTLPFFPFHNRLVNLRKKKKTKELAFQYIFIDQLELPPRIYNCLKKSNIHTLLDLLNNSQEDLIKIEHFHVEDVKKILDILEKK
**Q.** How did the binding [1] turn out when B1 was run?
**A.** binds

B2: rpoB fused to the GAL4 activation domain (AD) (protein, UniProt P50546 1-1072)
chain: MLGDEKEGTSAIPGFNQIQFEGFYRFIDQGLIEELAKFPKIEDIDHEIEFQLFVETYQLVEPLIKERDAVYESLTYSSELYVSAGLIWKTSRNMQEQRIFIGNIPLMNSLGTSIVNGIYRIVINQILQSPGIYYQSELDHNGISVYTGTIISDWGGRLELEIDKKARIWARVSRKQKISILVLSSAMGLNLREILENVCYPEIFLSFLTDKEKKKIGSKENAILEFYQQFSCVGGDPIFSESLCKELQKKFFHQRCELGRIGRRNINWRLNLNIPQNNIFLLPRDVLAAADHLIGMKFGMGTLDDMNHLKNKRIRSVADLLQDQLGLALARLENVVKGTISGAIRHKLIPTPQNLVTSTPLTTTYESFFGLHPLSQVLDRTNPLTQIVHGRKLSYLGPGGLTGRTANFRIRDIHPSHYGRICPIDTSEGINVGLIGSLSIHARIGDWGSLESPFYELFEKSKKARIRMLFLSPSQDEYYMIAAGNSLALNRGIQEEQAVPARYRQEFLTIAWEEVHLRSIFPFQYFSIGASLIPFIEHNDANRALMSSNMQRQAVPLSRSEKCIVGTGLERQVALDSGVPAIAEHEGKILYTDTEKIVFSGNGDTLSIPLIMYQRSNKNTCMHQKPQVRRGKCIKKGQILADGAATVGGELALGKNILVAYMPWEGYNFEDAVLISECLVYGDIYTSFHIRKYEIQTHVTTQGPERITKEIPHLEGRLLRNLDKNGIVMLGSWVETGDILVGKLTPQVAKESSYAPEDRLLRAILGIQVSTSKETCLKLPIGGRGRVIDVRWVQKKGGSSYNPEIIRVYISQKREIKVGDKVAGRHGNKGIISKILPRQDMPYLQDGRPVDMVFNPLGVPSRMNVGQIFECSLGLAGSLLDRHYRIAPFDERYEQEASRKLVFSELYEASKQTANPWVFEPEYPGKSRIFDGRTGDPFEQPVIIGKPYILKLIHQVDDKIHGRSSGHYALVTQQPLRGRSKQGGQRVGEMEVWALEGFGVAHILQEMLTYKSDHIRARQEVLGTTIIGGTIPKPEDAPESFRLLVRELRSLALELNHFLVSEKNFQINRKEV
**Q.** Which binding [1] does the source give for B2 here?
**A.** binds

B3: rpoTp fused to the GAL4 activation domain (AD) (protein, UniProt O24600 1-993)
chain: MASAAAASPSLSLNPTSHFQHQTSLVTWLKPPPSSALFRRKTLPFFERHSLPISASSSSSSSSSTSLSVHEKPISNSVHFHGNLIESFENQDSSYAGTIKGASLIEELENPVERNGLSGRRRLFMQDPPWISALFLKGLSKMVDQTLKIERKDIDKRKFDSLRRRQVKEETEAWERMVDEYRDLEKEMCEKNLAPNLPYVKHMFLGWFQPLKDVIEREQKLQKNKSKKVRAAYAPHIELLPADKMAVIVMHKMMGLVMSGHEDGCIQVVQAAVSIGIAIEQEVRIHNFLKRTRKNNAGDSQEELKEKQLLRKRVNSLIRRKRIIDALKVVKSEGTKPWGRATQAKLGSRLLELLIEAAYVQPPLTQSGDSIPEFRPAFRHRFKTVTKYPGSKLVRRYGVIECDSLLLAGLDKSAKHMLIPYVPMLVPPKRWKGYDKGGYLFLPSYIMRTHGSKKQQDALKDISHKTAHRVFEALDTLGNTKWRVNRNILDVVERLWADGGNIAGLVNREDVPIPEKPSSEDPEELQSWKWSARKANKINRERHSLRCDVELKLSVARKMKDEEGFYYPHNLDFRGRAYPMHPHLNHLSSDLCRGTLEFAEGRPLGKSGLHWLKIHLANLYAGGVEKLSHDARLAFVENHLDDIMDSAENPIHGKRWWLKAEDPFQCLAACVILTQALKSPSPYSVISHLPIHQDGSCNGLQHYAALGRDSFEAAAVNLVAGEKPADVYSEISRRVHEIMKKDSSKDPESNPTAALAKILITQVDRKLVKQTVMTSVYGVTYVGAREQIKRRLEEKGVITDERMLFAAACYSAKVTLAALGEIFEAARAIMSWLGDCAKIIASDNHPVRWITPLGLPVVQPYCRSERHLIRTSLQVLALQREGNTVDVRKQRTAFPPNFVHSLDGTHMMMTAVACREAGLNFAGVHDSYWTHACDVDTMNRILREKFVELYNTPILEDLLQSFQESYPNLVFPPVPKRGDFDLKEVLKSQYFFN
**Q.** For B3, which binding [1] is on record?
**A.** binds

B4: rpoA (endogenous) (protein, UniProt P56762 1-329)
chain: MVREKVKVSTRTLQWKCVESKRDSKRLYYGRFILSPLMKGQADTIGIAMRRALLGEIEGTCITRAKSENIPHDYSNIAGIQESVHEILMNLNEIVLRSNLYGTRNALICVQGPGYITARDIILPPAVEIIDNTQHIATLTEPIDLCIELKIERNRGYSLKMSNNFEDRSYPIDAVFMPVENANHSIHSYGNGNEKQEILFLEIWTNGSLTPKEALHQASRNLINLFIPFLHVEEETFYLENNQHQVTLPFFPFHNRLVNLRKKKKTKELAFQYIFIDQLELPPRIYNCLKKSNIHTLLDLLNNSQEDLIKIEHFHVEDVKKILDILEKK
**Q.** How did the binding [2] turn out when B4 was run?
**A.** binds

B5: rpoB (endogenous) (protein, UniProt P50546 1-1072)
chain: MLGDEKEGTSAIPGFNQIQFEGFYRFIDQGLIEELAKFPKIEDIDHEIEFQLFVETYQLVEPLIKERDAVYESLTYSSELYVSAGLIWKTSRNMQEQRIFIGNIPLMNSLGTSIVNGIYRIVINQILQSPGIYYQSELDHNGISVYTGTIISDWGGRLELEIDKKARIWARVSRKQKISILVLSSAMGLNLREILENVCYPEIFLSFLTDKEKKKIGSKENAILEFYQQFSCVGGDPIFSESLCKELQKKFFHQRCELGRIGRRNINWRLNLNIPQNNIFLLPRDVLAAADHLIGMKFGMGTLDDMNHLKNKRIRSVADLLQDQLGLALARLENVVKGTISGAIRHKLIPTPQNLVTSTPLTTTYESFFGLHPLSQVLDRTNPLTQIVHGRKLSYLGPGGLTGRTANFRIRDIHPSHYGRICPIDTSEGINVGLIGSLSIHARIGDWGSLESPFYELFEKSKKARIRMLFLSPSQDEYYMIAAGNSLALNRGIQEEQAVPARYRQEFLTIAWEEVHLRSIFPFQYFSIGASLIPFIEHNDANRALMSSNMQRQAVPLSRSEKCIVGTGLERQVALDSGVPAIAEHEGKILYTDTEKIVFSGNGDTLSIPLIMYQRSNKNTCMHQKPQVRRGKCIKKGQILADGAATVGGELALGKNILVAYMPWEGYNFEDAVLISECLVYGDIYTSFHIRKYEIQTHVTTQGPERITKEIPHLEGRLLRNLDKNGIVMLGSWVETGDILVGKLTPQVAKESSYAPEDRLLRAILGIQVSTSKETCLKLPIGGRGRVIDVRWVQKKGGSSYNPEIIRVYISQKREIKVGDKVAGRHGNKGIISKILPRQDMPYLQDGRPVDMVFNPLGVPSRMNVGQIFECSLGLAGSLLDRHYRIAPFDERYEQEASRKLVFSELYEASKQTANPWVFEPEYPGKSRIFDGRTGDPFEQPVIIGKPYILKLIHQVDDKIHGRSSGHYALVTQQPLRGRSKQGGQRVGEMEVWALEGFGVAHILQEMLTYKSDHIRARQEVLGTTIIGGTIPKPEDAPESFRLLVRELRSLALELNHFLVSEKNFQINRKEV
**Q.** For B5, which binding [2] is on record?
**A.** binds

B6: rpoTp (endogenous) (protein, UniProt O24600 96-993)
chain: AGTIKGASLIEELENPVERNGLSGRRRLFMQDPPWISALFLKGLSKMVDQTLKIERKDIDKRKFDSLRRRQVKEETEAWERMVDEYRDLEKEMCEKNLAPNLPYVKHMFLGWFQPLKDVIEREQKLQKNKSKKVRAAYAPHIELLPADKMAVIVMHKMMGLVMSGHEDGCIQVVQAAVSIGIAIEQEVRIHNFLKRTRKNNAGDSQEELKEKQLLRKRVNSLIRRKRIIDALKVVKSEGTKPWGRATQAKLGSRLLELLIEAAYVQPPLTQSGDSIPEFRPAFRHRFKTVTKYPGSKLVRRYGVIECDSLLLAGLDKSAKHMLIPYVPMLVPPKRWKGYDKGGYLFLPSYIMRTHGSKKQQDALKDISHKTAHRVFEALDTLGNTKWRVNRNILDVVERLWADGGNIAGLVNREDVPIPEKPSSEDPEELQSWKWSARKANKINRERHSLRCDVELKLSVARKMKDEEGFYYPHNLDFRGRAYPMHPHLNHLSSDLCRGTLEFAEGRPLGKSGLHWLKIHLANLYAGGVEKLSHDARLAFVENHLDDIMDSAENPIHGKRWWLKAEDPFQCLAACVILTQALKSPSPYSVISHLPIHQDGSCNGLQHYAALGRDSFEAAAVNLVAGEKPADVYSEISRRVHEIMKKDSSKDPESNPTAALAKILITQVDRKLVKQTVMTSVYGVTYVGAREQIKRRLEEKGVITDERMLFAAACYSAKVTLAALGEIFEAARAIMSWLGDCAKIIASDNHPVRWITPLGLPVVQPYCRSERHLIRTSLQVLALQREGNTVDVRKQRTAFPPNFVHSLDGTHMMMTAVACREAGLNFAGVHDSYWTHACDVDTMNRILREKFVELYNTPILEDLLQSFQESYPNLVFPPVPKRGDFDLKEVLKSQYFFN
**Q.** Which binding [2] does the source give for B6 here?
**A.** binds
